PubChem BioAssay AID1259290 | Sanger Institute | 2017

- Purpose: 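Identify kinases needed for colorectal cancer cell survival, with or without anchor drugs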 (primary screen)
- Cells: human SNUC1 colorectal cancer cells
- Reagent: siRNA pool against human genes
- Conditions: anchor drugs BYL719 1 µM, cetuximab 5 µg/ml or trametinib 10 nM, or DMSO vehicle alone
- Measured: 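Viability averaged over replicates and scaled to non-targeting siRNA, robust z-score with no drug, and synergy scores by drug for BYL719, cetuximab and trametinib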
- Direction: viability z-score, siRNA alone: higher = more viable cells; low values mean essential gene; viability vs control, siRNA alone: higher = more viable cells; synergy score with BYL719 and synergy score with Cetuximab and synergy score with Trametinib: higher = stronger synthetic lethal effect with drug
- Hit rule: 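a knock-down without drug scoring a robust z under -3 counts as essential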
- Meaning of the calls: active = essential: knock-down alone cut viability (z below -3); inactive = no clear viability loss with knock-down alone
This is a random part of 794 reagents tested. 9 of them (1.1%) were called active. 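Calls rest on knock-down alone, not drug synergy; synergy above 0.15 was grouped apart and does not affect calls.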 Entries without a mark were called inactive. No viability above 1 is reported: the scale is capped. The record does not give: the amount of reagent, the time to read-out.

gene,"viability z-score, siRNA alone","viability vs control, siRNA alone",synergy score with BYL719,synergy score with Cetuximab,synergy score with Trametinib
CPNE3 (GeneID 8895),-0.114,0.905,-0.224,0.019,0.0205
PIK3R3 (GeneID 8503),0.936,1,-0.115,-0.0447,0.00227
MAP3K1 (GeneID 4214),-0.864,0.838,-0.115,0.0168,-0.07
EPHA8 (GeneID 2046),0.809,0.988,-0.128,-0.0256,0.00938
SPHK2 (GeneID 56848),-1.26,0.802,-0.131,-0.0774,-0.0241
SOX9 (GeneID 6662),0.775,0.985,-0.21,-0.0586,-0.116
DUSP21 (GeneID 63904),-0.571,0.864,-0.137,-0.0113,0.00887
RNASEL (GeneID 6041),-0.0524,0.911,-0.0873,0.0692,-0.0166
PMVK (GeneID 10654),-1.58,0.773,-0.127,0.0793,-0.0481
EPHA1 (GeneID 2041),0.359,0.948,0.0458,-0.0259,0.0826
IP6K3 (GeneID 117283),0.824,0.99,-0.206,-0.0406,-0.0695
PLK2 (GeneID 10769),0.936,1,-0.0739,0.102,0.0918
CHEK2 (GeneID 11200),0.759,0.984,-0.21,0.0463,-0.0316
DLG3 (GeneID 1741),-1.2,0.807,-0.148,-0.0254,0.07
STK33 (GeneID 65975),-0.292,0.889,-0.116,0.15,0.0375
CSNK1E (GeneID 1454),-0.0892,0.908,-0.272,-0.133,0.00801
ADCK1 (GeneID 57143),0.936,1,0.00392,0.0254,0.0637
TAB1 (GeneID 10454),0.936,1,-0.109,-0.0447,0.0627
NUAK1 (GeneID 9891),-0.677,0.855,-0.166,-0.0466,-0.0279
MVK (GeneID 4598),-1.18,0.81,-0.199,-0.0205,0.000905
UHMK1 (GeneID 127933),-1.56,0.775,-0.237,-0.11,-0.098
DGKK (GeneID 139189),-1.39,0.79,-0.115,0.0281,-0.223
NME2 (GeneID 4831),0.936,1,-0.198,-0.0447,-0.0062
TNK1 (GeneID 8711),0.57,0.967,-0.0447,0.0108,-0.0913
TAF1L (GeneID 138474),0.427,0.954,-0.189,0.2,0.0502
N4BP2 (GeneID 55728),-0.354,0.884,-0.201,0.0777,0.0147
ROCK2 (GeneID 9475),0.683,0.977,-0.0269,0.0234,0.125
MAPK8 (GeneID 5599),-0.0573,0.911,-0.177,-0.102,-0.139
DAPK1 (GeneID 1612),-0.137,0.903,-0.22,-0.125,0.0474
KIT (GeneID 3815),0.68,0.977,-0.212,0.141,0.0469
PIK3C2B (GeneID 5287),0.27,0.94,-0.184,0.0344,-0.0572
DBF4 (GeneID 10926),0.634,0.973,-0.0835,-0.0225,0.0323
RTN4 (GeneID 57142),0.936,1,-0.0923,-0.0447,0.0858
EPHB4 (GeneID 2050),-0.484,0.872,-0.00916,0.0609,0.0301
SGK2 (GeneID 10110),0.936,1,-0.101,-0.0447,0.0104
WIPF1 (GeneID 7456),0.936,1,-0.023,-0.0447,0.12
PFKFB4 (GeneID 5210),0.312,0.944,-0.145,-0.0111,0.126
CSF1R (GeneID 1436),-0.644,0.858,0.0858,-0.119,0.112
MAP4K2 (GeneID 5871),-1.72,0.76,-0.234,-0.0235,-0.15
TAF1 (GeneID 6872),-0.476,0.873,-0.251,0.0176,-0.188
RPS6KL1 (GeneID 83694),-1.51,0.78,0.0347,-0.0995,0.0519
STK3 (GeneID 6788),0.0569,0.921,-0.148,0.107,-0.0292
ACVRL1 (GeneID 94),0.936,1,-0.186,-0.0447,0.0888
CDK5 (GeneID 1020),0.195,0.933,-0.105,-0.109,-0.057
PKN3 (GeneID 29941),0.767,0.985,-0.0161,0.142,0.0536
ULK2 (GeneID 9706),0.936,1,-0.198,0.0272,-0.02
STK25 (GeneID 10494),0.825,0.99,-0.166,-0.0543,-0.0178
NF1 (GeneID 4763),0.264,0.939,-0.154,-0.103,-0.136
GK (GeneID 2710),-0.643,0.858,-0.0319,0.051,-0.0706
ACVR2A (GeneID 92),-0.558,0.865,-0.276,0.0258,-0.142
PCK2 (GeneID 5106),0.936,1,-0.198,0.0142,0.00525
ATM (GeneID 472),0.936,1,-0.15,-0.0447,0.0026
ACSL6 (GeneID 23305),-3.53 (active),0.598,-0.153,-0.126,-0.212
DAPK2 (GeneID 23604),-0.188,0.899,-0.203,-0.0042,0.0197
PDK1 (GeneID 5163),0.936,1,-0.0772,-0.0368,0.143
SRC (GeneID 6714),-1.7,0.763,-0.269,-0.0244,-0.158
PI4KA (GeneID 5297),0.409,0.953,-0.236,0.0677,-0.00329
MED12 (GeneID 9968),-0.712,0.852,-0.192,-0.0454,-0.0961
CDK14 (GeneID 5218),0.879,0.995,-0.115,0.185,-0.0438
CAMK2D (GeneID 817),-0.473,0.873,-0.248,-0.0678,-0.161
GNE (GeneID 10020),-0.365,0.883,-0.234,-0.0399,-0.0819
IRAK4 (GeneID 51135),0.936,1,-0.0268,0.266,0.0333
NEK6 (GeneID 10783),0.667,0.976,-0.0475,-0.0595,-0.0207

5 of these entries, reformatted.
{"gene":"CSF1R (GeneID 1436)","viability z-score, siRNA alone":-0.644,"viability vs control, siRNA alone":0.858,"synergy score with BYL719":0.0858,"synergy score with Cetuximab":-0.119,"synergy score with Trametinib":0.112}
{"gene":"MAP4K2 (GeneID 5871)","viability z-score, siRNA alone":-1.72,"viability vs control, siRNA alone":0.76,"synergy score with BYL719":-0.234,"synergy score with Cetuximab":-0.0235,"synergy score with Trametinib":-0.15}
{"gene":"TAF1 (GeneID 6872)","viability z-score, siRNA alone":-0.476,"viability vs control, siRNA alone":0.873,"synergy score with BYL719":-0.251,"synergy score with Cetuximab":0.0176,"synergy score with Trametinib":-0.188}
{"gene":"RPS6KL1 (GeneID 83694)","viability z-score, siRNA alone":-1.51,"viability vs control, siRNA alone":0.78,"synergy score with BYL719":0.0347,"synergy score with Cetuximab":-0.0995,"synergy score with Trametinib":0.0519}
{"gene":"STK3 (GeneID 6788)","viability z-score, siRNA alone":0.0569,"viability vs control, siRNA alone":0.921,"synergy score with BYL719":-0.148,"synergy score with Cetuximab":0.107,"synergy score with Trametinib":-0.0292}
